Results taken from patent publication US10017580B2, “Humanized anti-Tn-MUC1 antibodies and their conjugates” (ADC THERAPEUTICS S.A., priority 2014, dated 2018).

B1: Ab4: anti-Tn MUC 1 antibody comprising a VH domain according to SEQ ID NO. 9 and a VL domain according to SEQ ID NO. 33 (antibody, V domains shown)
VH: QVQLVQSGAEVKKTGSSVKVSCKASGYTFTDHAIHWVRQAPGQALEWMGHFSPGNTDIKYNDKFKGRVTLTVDRSMSTAYMELSSLRSEDTAMYYCKTSTFFFDYWGQGTMVTVSS
VL: DIVMTQSPLSLPVTPGEPASISCKSSQSLLNSGDQKNYLTWYLQKPGQSPQLLIYWASTRESGVPDRFSGSGSGTDFTLKISRVEAEDVGVYYCQNDYSYPLTFGGGTKVEIK
modifications: Synthetic sequence: Humanized antibody heavy chain variable region 5E5RHA8; Synthetic sequence: Humanized antibody light chain variable region 5E5RKB
B2: Ab5: anti-Tn MUC 1 antibody comprising a VH domain according to SEQ ID NO. 19 and a VL domain according to SEQ ID NO. 33 (antibody, V domains shown)
VH: EVQLVQSGAEVKKPGESLKISCKISGYIFTDHAIHWVRQMPGKGLEWMGHFSPGNTDIKYNDKFKGQVTLSVDRSINTAYLQWSSLKASDTAIYFCKTSTFFFDYWGQGTRVTVSS
VL: B1 VL
modifications: Synthetic sequence: Humanized antibody heavy chain variable region 5E5RHB10; Synthetic sequence: Humanized antibody light chain variable region 5E5RKB
B3: Ab6: anti-Tn MUC 1 antibody comprising a VH domain according to SEQ ID NO. 28 and a VL domain according to SEQ ID NO. 33 (antibody, V domains shown)
VH: EVQLVESGAEVKKPGASVEVSCQASGYTFTDHAIHWVRQAPGQGLEWMGHFSPGNTDIKYNDKFKGRVTMTVDRSINTAYMELRRLRSDDTAVYYCKTSTFFFDYWGQGTMVTVSS
VL: B1 VL
modifications: Synthetic sequence: Humanized antibody heavy chain variable region 5E5RHC9; Synthetic sequence: Humanized antibody light chain variable region 5E5RKB

How the values were obtained:
[1] = Static HEK293T transient transfection, IgG quantitation by ELISA (protocols 2 and 3); settings: for Static HEK293T transient IgG: expression level in conditioned medium; for Expression level of the construct (in words): protocols 2 and 3
[2] = Shaken HEK293F transient transfection culture (protocol 7), IgG quantitation; settings: expression level in shake culture medium

Molecule | Static HEK293T transient IgG [1] | Expression level of the construct (in words) [1] | Shaken HEK293F transient IgG [2]
B1 | 10.9 µg/mL | expressed well | 18.9 µg/mL
B2 | 3.3 µg/mL | – | 17.2 µg/mL
B3 | 0.18 µg/mL | low | 1.0 µg/mL
